# Test results taken from article PMC6036185.
# Chains of the proteins cited; added tags and fusions are not shown. Residues count along the entry.
# UniProt Q7T9D9, residues 33-649: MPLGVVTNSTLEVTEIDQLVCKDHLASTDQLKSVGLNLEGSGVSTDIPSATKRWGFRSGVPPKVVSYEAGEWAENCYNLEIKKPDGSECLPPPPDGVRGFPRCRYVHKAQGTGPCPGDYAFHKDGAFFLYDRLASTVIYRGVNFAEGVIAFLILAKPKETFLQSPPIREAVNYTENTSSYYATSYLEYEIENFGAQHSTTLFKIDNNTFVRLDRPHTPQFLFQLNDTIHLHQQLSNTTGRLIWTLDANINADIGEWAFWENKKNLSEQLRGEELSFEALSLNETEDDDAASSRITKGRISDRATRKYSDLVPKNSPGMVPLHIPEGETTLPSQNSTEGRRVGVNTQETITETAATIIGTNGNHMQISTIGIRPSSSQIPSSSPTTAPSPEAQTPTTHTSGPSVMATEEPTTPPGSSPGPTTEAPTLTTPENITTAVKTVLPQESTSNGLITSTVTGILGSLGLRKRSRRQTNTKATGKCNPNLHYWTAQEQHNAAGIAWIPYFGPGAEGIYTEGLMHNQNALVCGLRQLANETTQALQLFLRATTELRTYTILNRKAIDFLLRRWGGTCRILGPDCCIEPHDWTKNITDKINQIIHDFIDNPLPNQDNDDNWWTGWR
# UniProt P26718, residues 73-216: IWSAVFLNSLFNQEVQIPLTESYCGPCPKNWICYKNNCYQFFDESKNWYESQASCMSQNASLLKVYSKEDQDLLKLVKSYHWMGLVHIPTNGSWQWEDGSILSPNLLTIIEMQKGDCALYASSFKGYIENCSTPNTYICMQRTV
# UniProt O95944, residues 22-192: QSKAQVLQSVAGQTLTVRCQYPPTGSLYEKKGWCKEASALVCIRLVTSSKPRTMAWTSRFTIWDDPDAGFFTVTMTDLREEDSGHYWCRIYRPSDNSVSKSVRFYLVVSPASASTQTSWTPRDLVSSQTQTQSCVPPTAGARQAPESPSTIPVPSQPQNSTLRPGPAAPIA
# UniProt O14931, residues 19-135: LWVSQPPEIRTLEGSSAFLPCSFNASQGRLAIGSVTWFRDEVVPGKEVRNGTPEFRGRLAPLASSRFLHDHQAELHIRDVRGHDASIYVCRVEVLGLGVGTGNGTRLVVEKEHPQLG
# UniProt O76036, residues 22-258: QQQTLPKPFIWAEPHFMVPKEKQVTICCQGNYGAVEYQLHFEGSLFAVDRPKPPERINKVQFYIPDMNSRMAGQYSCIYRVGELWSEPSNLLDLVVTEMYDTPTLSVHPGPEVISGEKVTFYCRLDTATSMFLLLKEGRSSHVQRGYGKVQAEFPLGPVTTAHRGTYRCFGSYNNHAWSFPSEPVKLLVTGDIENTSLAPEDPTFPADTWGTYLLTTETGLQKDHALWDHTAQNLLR
# UniProt Q99706, residues 22-242: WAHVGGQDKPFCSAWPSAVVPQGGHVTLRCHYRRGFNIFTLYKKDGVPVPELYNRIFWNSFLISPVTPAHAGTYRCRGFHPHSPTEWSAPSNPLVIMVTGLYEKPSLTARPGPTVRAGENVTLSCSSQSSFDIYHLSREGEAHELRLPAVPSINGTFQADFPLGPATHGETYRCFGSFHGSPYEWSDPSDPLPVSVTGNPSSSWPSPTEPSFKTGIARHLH
# No constants are given. Whether binding was seen depends on the method and setting.
# Biological target: soluble recombinant Sudan virus (SUDV)-GP, Gulu strain, 1-649 ectodomain (Sudan virus (SUDV), strain Gulu) (UniProt Q7T9D9)
# Assay: ELISA; both purified
row,Substance,binding
1,NKG2D-Ig (from UniProt P26718 73-216) (Fc fusion),no binding (tested: 2 µg/ml)
2,NKp44-Ig (from UniProt O95944) (Fc fusion),no binding (tested: 2 µg/ml)
3,NKp30-Ig (from UniProt O14931 19-135) (Fc fusion),no binding (tested: 2 µg/ml)
4,NKp46-Ig (from UniProt O76036) (Fc fusion),no binding (tested: 2 µg/ml)
5,KIR2DL4-Ig (from UniProt Q99706 22-242) (Fc fusion),no binding (tested: 2 µg/ml)
